At least one compound was matched to its structure with a doubt left.
System: Open Face Endometrial Layer (OFEL)
Assay: In vitro implantation assay: attachment of blastoids or trophospheres onto OFELs
Format: cell-based, human
Conditions: stimulated OFELs additionally exposed to Levonorgestrel (LNG, 10 μM)
Description: Endometrial organoids were passaged as described in the previous section. The dissociated cells were resuspended in Matrigel supplemented with Y-27632 (10 μM), cell suspension was deposited in 48-well plates and were cultured in endometrial expansion medium for 2 days. The organoids were stimulated first with E2 (10 nM, Sigma-Aldrich, E2758) for 2 days, followed by the mixture of E2 (10 nM), P4 (1 μM, Sigma-Aldrich, P8783), and CAMP (250 μM, Biolog, B 007) with or without XAV939 (10 µM) (EPC or EPCX respectively) for 4 days. For OFELs culture, organoids were recovered from the matrigel droplets with ice-cold DMEM/F12 and mechanical pipetting. The organoids were dissociated using TrypLE and mechanically triturated to generate single cells and seeded at the density of 3 to 3.5×10^4 cells per well into a 96-well glass bottom plate (Cellvis, P96-1.5H-N) and cultured for 2-3 days with stimulation. For contraceptive treatment, levonorgestrel (LNG) (10 μM, Sigma-Aldrich, PHR1850) was added every day to the medium two days after hormonal stimulation and continued until the end of experiment.
Confluent OFELs were prepared for the implantation assay at least 2 hours prior to the deposition of blastoids, trophospheres, naive hPSCs or hTSCs aggregates by washing the OFEL two times with DMEM/F12 and adding IVC medium (Xiang, L. et al. Nature 577, 537-542 (2020)). […]

Compound: C#C[C@]1(O)CC[C@H]2[C@@H]3CCC4=CC(=O)CC[C@@H]4[C@H]3CC[C@@]21CC [Levonorgestrel]
- blastoid attachment onto OFELs: impaired blastoid attachment
